The text below walks through data of PubChem BioAssay AID1347426 (Functional Genomics Laboratory (NCATS/FGL), 2020).

In all, about 31,000 sequences went through this assay and about 1,400 (4.5%) were called active.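 The calls were made as follows: active = median seed-adjusted z-score above 1 or below -1; inactive = the rest.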 The list shows a part of the results.

A short description of this experiment: Novel Modifiers of Survival Motor Neuron (SMN) Protein: Gene Identification via Genome-wide siRNA Screen.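 Also: luminescence tracks full-length SMN protein made from the SMN2 reporter.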 As to conditions: HEK293T SMN2-luciferase reporter, siRNA knockdown, 72 h; actives lie on both sides. The method, boiled down: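 Genome-wide siRNA screen (10418 genes, 3 siRNAs each, 1 pmol per well) by reverse transfection in HEK293T cells stably carrying an SMN2-luciferase reporter; luminescence after 72 hours, normalized to negative-control siRNA, log10-transformed, MAD-scored.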
Consider CAGAGACCUUCAAACAGCATT against SLC27A3, for which the median seed-adjusted z-score was inactive: -0.341.
Regarding GGACCAAGAGUUCCCAUUATT against RAB19, the median seed-adjusted z-score was inactive: -0.0516.
Take GAUGUCUCCUUUAUCGAUATT against ACOT9: the median seed-adjusted z-score is inactive: 0.58.
Take CACUAUAUCAAUUACCGAATT against THRB: the median seed-adjusted z-score was inactive: 0.324.
Take GGACAAAGUGUUAAUUACATT against DUSP16: the median seed-adjusted z-score is inactive: 0.
Take CCUUAAAGUCUACACCCAATT against TMEM123: the median seed-adjusted z-score is inactive: 0.292.
For CUAUACCUGCGUAGAUAUATT against EFEMP1, the median seed-adjusted z-score is inactive: 0.0157.
On to AAGGUAAAAUUGAAGAGUUTT against SERPINB9, for which the median seed-adjusted z-score was inactive: 0.
With GCCCUGGGUGGAUACUUGATT against PIM3, the median seed-adjusted z-score was active: -1.01.
As to GAAACAACUUGAUUUCGAATT against PCDHB8, the median seed-adjusted z-score is active: 1.15.
Take AGCUCUUUGCUACAGAUGATT against ACAD8: the median seed-adjusted z-score is active: 1.06.
With CAGUCGUUGCUGUCAAAAATT against RGS9 the figure was inactive: 0.0665.
Consider GCCGGUUUUUCAGCUCAAATT against NEK7, for which the median seed-adjusted z-score was inactive: 0.
On to UGUGGAACAUUAUCAGGAATT against ALG2, for which the median seed-adjusted z-score is inactive: 0.631.
With AGAUCAUCUUUAUUGUCGUTT against GPR15, the median seed-adjusted z-score was inactive: 0.101.
Regarding GCAGUAAGAUGGGAGCUUUTT against PLA2G4F, the median seed-adjusted z-score was inactive: -0.0231.
As for GAGUCGGCAUAGCUAUAUUTT against CDKL5, the median seed-adjusted z-score is inactive: -0.256.
Turning to GCCUCAUCGUGGUUAGCAATT against ASRGL1, the median seed-adjusted z-score is inactive: 0.
For the sequence GCGAUACAACUGAUCCAGATT against SLC22A13, the median seed-adjusted z-score is inactive: 0.904.
Turning to ACACUGCCCGAAGUCCUUUTT against ZNF575, the median seed-adjusted z-score is inactive: 0.458.
In the case of GCAGUGAUUCUGUAUCCGATT against VPS54 it was inactive: -0.128; in that of GGAUGAUCGAGACCAGUUUTT against XPO4, inactive: 0.616.
GGAACUAGAUGUCAUGUAUTT against VILL: the median seed-adjusted z-score is inactive: 0.518.
As for CAGUCUUACUGGGAACAAUTT against TGDS, the median seed-adjusted z-score was inactive: -0.196.
Turning to GAGCACUUCUACAAUAGAATT against GALNT4, the median seed-adjusted z-score is inactive: 0.419.
In the case of GGAACGUGGUACUUAGUUATT against HMGCS1, the median seed-adjusted z-score is inactive: 0.0596.
As to ACUUGUCCUUAAUAAAGAATT against IL5, the median seed-adjusted z-score is inactive: -0.229.
Take AACCGCUGCUUGAAAGAUATT against PI3: the median seed-adjusted z-score was inactive: 0.493.
Turning to GGCCCAAGAUCUUCCCUAATT against GPR179, the median seed-adjusted z-score is inactive: -0.513.
As for CCUCAAUGUCUGUAUGGAUTT against FOLR2, the median seed-adjusted z-score was inactive: -0.0835.
On to GAGUAGAUGCUGCUAUUUATT against PPM1E, for which the median seed-adjusted z-score was inactive: -0.00802.
With CCCUAAUAGAGGACACUAUTT against PCDHGA1 the figure was inactive: -0.319.
GAACUUCUACUUUAACAAATT against HS3ST1: the median seed-adjusted z-score was active: 1.21.
With CCAUCGUGUCUGUAGAGGATT against RNF123 the figure was inactive: 0; with CCAUUGCCGAAAUCUAAAATT against DEK, inactive: 0.374; with GCUUCCCGAUUAACUGAAATT against MECP2, inactive: -0.332.
As for CAAGGAUAUUGGUGAUUAATT against GTF2H3, the median seed-adjusted z-score is inactive: 0.356.
With GGUACUCACUCACCAAUGATT against NPR1 the figure was inactive: -0.823.
Regarding GAAUCUUGCAUCAAUAUAATT against CLDN23, the median seed-adjusted z-score was inactive: 0.817.
For CCUUUGGAUGGAAUACUUATT against TKTL2, the median seed-adjusted z-score was inactive: -0.0379.
With CAGUGUUCCUGACUUCGAATT against COPS3, the median seed-adjusted z-score was inactive: 0.176.
Take GGCCCUACCACAUCCAGAATT against ACSBG1: the median seed-adjusted z-score is inactive: 0.113.
Consider CACCCUUAUUGAUUCUGAUTT against DHRS13, for which the median seed-adjusted z-score is inactive: 0.192.
With CUACGACUCAAGAACUAUATT against LARS, the median seed-adjusted z-score was inactive: -0.788.
In the case of GCAUCAUCAAUGGAUCCGATT against KLK5, the median seed-adjusted z-score is inactive: 0.
On to GCAUCAGCAUAAGUCCAUUTT against SIAH1, for which the median seed-adjusted z-score was active: 1.5.
With CGCUACACCCUGCACUAUATT against TRAP1 the figure was inactive: -0.637; with GCACAACACUCGCUCCAAUTT against GLT8D1, active: 1.22.
In the case of GAACAGAUAUCUAAAACGATT against SNX2 it was inactive: -0.569; in that of CAGCGGAUGUGUUCAGUCUTT against PKMYT1, inactive: 0.65.
On to GGCUGUUCUCCGAGACAAATT against SNED1, for which the median seed-adjusted z-score is inactive: 0.148.
Take GGAUCACACCUACAGCAAATT against ACTL6B: the median seed-adjusted z-score was inactive: 0.0703.
With CGAUUUGCGCAUUUCCUGGTT against FOXD4L2 the figure was inactive: -0.118.
On to UGAACAUCUUGUCCUUUUATT against CERK, for which the median seed-adjusted z-score was inactive: 0.
Consider GGCUGGAAAAUACUCGCUATT against SRL, for which the median seed-adjusted z-score is inactive: 0.148.
As for CAAUCUACAGAAUUCUACATT against IMMP1L, the median seed-adjusted z-score was inactive: -0.444.
Take CUACAUCAAGAAGACAUAUTT against ABHD2: the median seed-adjusted z-score was active: -1.21.
Consider GGAUCAUGACAUUCCAUAATT against DGCR8, for which the median seed-adjusted z-score was inactive: -0.266.
As to GGGUUUAUUUGCAAGACGATT against PDPK1, the median seed-adjusted z-score is inactive: 0.0807.
For ACAGGAACGAAAUCCGGAATT against PLEKHJ1, the median seed-adjusted z-score is inactive: -0.213.
In the case of CCCUGACGGUAGAUACAUUTT against TRPM7, the median seed-adjusted z-score is inactive: -0.575.
For the sequence GGGACCUACUCAAAAGUCATT against TSSK3, the median seed-adjusted z-score was inactive: -0.381.
With GGAUUGCGCUGAAGACUAUTT against UNC13B the figure was inactive: -0.0216; with ACAUCACGCGGGCUUCUAATT against HS6ST3, inactive: -0.405; with GGAGGUUAUAAUUAUGUUATT against ZNF716, inactive: 0.
In the case of GCUGAGAUAUCUAGGAGAATT against RPS6KA5 it was inactive: -0.0588.
In the case of GGAAUUACCUGUCCAUCUUTT against CAPN1, the median seed-adjusted z-score is inactive: 0.282.
Turning to GCUCAUGUCAGAGUGCGAATT against HOMER2, the median seed-adjusted z-score is inactive: 0.522.
As for CCGGGAUCAUAAAAUCACATT against SLC9A8, the median seed-adjusted z-score was inactive: 0.367.
With GUAUCGUCCGUGUCUCAGATT against SLC26A8, the median seed-adjusted z-score is inactive: -0.145.
For the sequence GGCUACAAGUAGAGAGUUUTT against ESPL1, the median seed-adjusted z-score is inactive: 0.871.
In the case of GGUGAAGAUUGGUGACUAUTT against AATK it was inactive: -0.621; in that of CGGACUGGGAAGUUACUAATT against GNL2, inactive: 0.739.
In the case of GGAGAUCUAAAAGUGAAUATT against KLRF1, the median seed-adjusted z-score is inactive: 0.00941.
In the case of GGGAAGAAGUUCACCGCAATT against DTX1 it was inactive: -0.0757; in that of GGAAAUCGUCGUCAACCCATT against GALNT14, inactive: 0.
In the case of GGAUAGCAGCUAUUAGGGATT against MBTPS2, the median seed-adjusted z-score was inactive: -0.324.
Take GCAGCAACAUUAUUGUCUUTT against CLDN17: the median seed-adjusted z-score was inactive: 0.
In the case of GGUCAUUACCAUAUCUGAUTT against MNDA it was inactive: 0.232; in that of CGCCCAUUGUACGUGCUAATT against VPS18, inactive: 0.181; in that of GAAGGAUCCUGGACAGGGATT against AQP10, inactive: -0.09.
With GGGCUGGAAUUACUAUGGATT against CCNH the figure was inactive: -0.659.
Turning to GGCUGUACAUAGUCCUUUUTT against SNRPB, the median seed-adjusted z-score is active: -3.17.
With GGUUUGAACAUAAAGAGUUTT against ST6GAL2 the figure was inactive: 0.054.
In the case of CAAUCAACUGUAGAGAGUATT against ZNF343, the median seed-adjusted z-score was inactive: 0.0696.
In the case of “GGACCUCUCAUGAAAGUGATT against CSGALNACT2” it was inactive: 0.236; in that of CAUCUGGAAUUAACUGGAUTT against NUDT1, inactive: -0.175; in that of AGAGAAAGCUGUACAGAGATT against ZNF705A, inactive: 0.669.
As for GAACAGGAGAUGUUGCACATT against ZBTB32, the median seed-adjusted z-score is inactive: 0.458.
Turning to GCGUGAAUUUUUCUAUACATT against CRY1, the median seed-adjusted z-score was inactive: 0.0564.
On to GCAUUAGAAACUUACAAGATT against TROVE2, for which the median seed-adjusted z-score was inactive: 0.399.
For GAAAGUUGAUGACGUGUUATT against ZNF248, the median seed-adjusted z-score was inactive: -0.0486.
As to GGAUGCCAUCGUUUUUGUATT against CCL17, the median seed-adjusted z-score is inactive: 0.178.
Turning to GCUUCCUCCAAGCAAGAGATT against ZNF174, the median seed-adjusted z-score is inactive: 0.035.
In the case of GCACUCUGAAGAUCGAAUATT against HNRNPL it was active: 1.04; in that of CACAAGAUAUCAGGAGAAATT against FCRL2, inactive: -0.294.
In the case of AGCUCAUGCUGUCUAGCAATT against DUSP18 it was inactive: 0.13; in that of GCCCUGAUUUGUGCAAUGATT against PPP1R16B, inactive: -0.892.
GAACUUCUCCAGAGGAUAATT against NGLY1: the median seed-adjusted z-score was inactive: -0.0453.
For the sequence GAACGAUUCUCUCUAUAGATT against DSG1, the median seed-adjusted z-score was inactive: 0.187.
As to GCGUAGUUAUAGAAGUAGATT against RBMX2, the median seed-adjusted z-score is inactive: -0.585.
For the sequence CUCAAUACCUCAUCAGUCATT against NOVA2, the median seed-adjusted z-score was inactive: 0.
With UACCGUAAAUGUCCAUUUATT against CDKN2A the figure was inactive: -0.0748; with UGAUGAAGUACAUCCAUUATT against BCL2, inactive: 0.
Turning to GCGGUGUUGUGGACAAACATT against PTPRB, the median seed-adjusted z-score was inactive: -0.0981.
As to GCAACGUGUACUUCGCCAATT against KCNJ4, the median seed-adjusted z-score is inactive: -0.492.
In the case of AGGUCAAGGUUGACAACCATT against SYN1 it was inactive: -0.458.
With GCAUUGACGUGAUGGUCCATT against ATAD3B the figure was inactive: -0.624.
